Test results published in patent US7595300B2, “7-quinolyl ketolide antibacterial agents” (priority 2005, dated 2009).
Some entries share one result that the patent states for a list of compounds.

Test system: dog
Assay: Safety of intravenous dosing in dog models

CC1CC(N(C)C)C(O)C(O[C@@H]2[C@@H](C)C(=O)[C@@H](C)C(=O)O[C@H](CCF)[C@@]3(C)OC(=O)N[C@@H]3[C@@H](C)C(=O)[C@H](C)C[C@@]2(C)OC/C=C/c2ccc3cccnc3c2)O1 (some centres unmarked) [Compound (II), 6-O-(1-(7-quinolyl)-3-propenyl)-11-amino-11-deoxy-3-(descladinosyl)-3-oxo-15-fluoroerythromycin A-11,12-cyclic carbamate]
intravenous dose that could be given: at least 30 mg/kg

CC1CC(N(C)C)C(O)C(O[C@@H]2[C@@H](C)C(=O)[C@](C)(F)C(=O)O[C@H](CCF)[C@@]3(C)OC(=O)N[C@@H]3[C@@H](C)C(=O)[C@H](C)C[C@@]2(C)OC/C=C/c2ccc3cccnc3c2)O1 (some centres unmarked) [Compound (III), 6-O-(1-(7-quinolyl)-3-propenyl)-11-amino-11-deoxy-3-(descladinosyl)-3-oxo-2,15-difluoroerythromycin A-11,12-cyclic carbamate]
intravenous dose that could be given: at least 30 mg/kg
